Patent US7939580B2, “Dental composition containing epoxy functional polymerizable compounds” (3M Innovative Properties Company, priority 2004, dated 2011)
Some results were stated once for a whole list of compounds, not compound by compound.

Test: Refractive index (Kruess AR 4 D Abbe refractometer)
Type: physicochemical
Settings: 20.0° C., wavelength 589 nm
Description: The refractive index of the halogenated epoxy functional ether derivative was measured with a Kruess AR 4 D device (refractometer according to Abbe's measure principle). The refractive index was measured at 20.0° C. and at a wavelength of 589 nm.

## 1,5-Bis[2-(2,3-epoxy-propyl)-4,6-dichloro-phenyl]-pentane [Example 2]
Listed as example 2
  Refractive Index: higher refractive index

## 1,5-Bis[2-(2,3-epoxy-propyl)-6-chloro-phenyl]-pentane [Example 1]
Listed as example 1
  Refractive Index: higher refractive index
